Source: publication PMC7819943, “Rice protein-binding microarrays: a tool to detect cis-acting elements near promoter regions in rice”
Some of the results follow.

molecular target: T1, OsSMF1 (Oryza sativa, UniProt Q6ZLB0 1-436); test: protein-binding microarray (RPBM); PBS, 2% BSA, 51.3 ng/ul salmon testes DNA, 50 uM zinc acetate, 200 nM TF, 25 C, 1 h; high values mean tight binding; details: protein: recombinant; tags: N-terminal polyhistidine and DsRed monomer fusion (pET32a); chain copies: 2; label: CyDye5-dUTP incorporated in the synthesized complementary strand; 3' TTTTT single-stranded linker to array surface; dsDNA, one strand shown
T1 sequence: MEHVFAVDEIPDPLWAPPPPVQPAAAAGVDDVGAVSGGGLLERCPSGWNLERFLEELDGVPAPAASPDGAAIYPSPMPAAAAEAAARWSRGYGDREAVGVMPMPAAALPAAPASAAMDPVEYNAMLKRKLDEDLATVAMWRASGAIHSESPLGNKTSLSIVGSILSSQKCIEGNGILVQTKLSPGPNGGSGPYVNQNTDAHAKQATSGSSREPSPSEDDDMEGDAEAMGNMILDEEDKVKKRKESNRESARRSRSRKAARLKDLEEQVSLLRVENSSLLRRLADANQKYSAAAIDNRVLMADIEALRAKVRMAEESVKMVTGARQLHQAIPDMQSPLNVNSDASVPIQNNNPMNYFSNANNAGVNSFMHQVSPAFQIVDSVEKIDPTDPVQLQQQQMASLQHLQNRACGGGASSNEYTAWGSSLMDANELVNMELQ
Method in brief: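 In PBS with 2% BSA, salmon testes DNA and 50 µM zinc acetate, 200 nM protein was incubated on a custom Agilent array at 25 °C for 1 h and then washed off. The array had been made double-stranded by primer extension with Cy5-dUTP and blocked with 2% BSA. The proteins were transcription factors fused N-terminally to polyhistidine and DsRed, expressed in E. coli BL21-CodonPlus and purified on Ni–NTA. The binding signal is per-feature fluorescence intensity (arbitrary units) from an Axon 4000B scanner.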

Row | Sequence | binding signal
1 | TCTACTGCAATTAGTTGATTCAGCTAGTAGCAAACATAATCGGAGTCACCTAGTGCAG | 54800 fluorescence intensity (a.u.)
2 | ATAAGATTTGACACCTGATACTGATACTGTCCAGTTTATGCGGAGTCACCTAGTGCAG | 3330 fluorescence intensity (a.u.)
3 | CGCCTTCGCCACCACCGCACATCATCGCTCGCTTCCCGGCCGGAGTCACCTAGTGCAG | 3160 fluorescence intensity (a.u.)
4 | CTTTGTCTCGGCCCATAATGGCCAGCGTTTATGGCTCACTCGGAGTCACCTAGTGCAG | 10600 fluorescence intensity (a.u.)
5 | CCATGGATCCACCTGTCCACGCAGCTGAGCTTAACCACCGCGGAGTCACCTAGTGCAG | 3490 fluorescence intensity (a.u.)
6 | AATAACTTTTGTTCTGCATTCCCTCCTAGAGCATGTTCACCGGAGTCACCTAGTGCAG | 3510 fluorescence intensity (a.u.)
7 | TCCACTCTCCACCAGTCAGCAGTGACGACAAGCAACTTGCCGGAGTCACCTAGTGCAG | 5280 fluorescence intensity (a.u.)
8 | ACATACTTTCGTCTTCCTCCAGCTAACGGCCTCGCATTCTCGGAGTCACCTAGTGCAG | 3900 fluorescence intensity (a.u.)
9 | ACAGTGCCACCAGAAAACGAGCAACTCATTGCCAATGGATCGGAGTCACCTAGTGCAG | 3190 fluorescence intensity (a.u.)
10 | GGTCCACGTAAACAGAATGACCAGACTTATTTGATTCTCTCGGAGTCACCTAGTGCAG | 4640 fluorescence intensity (a.u.)
11 | TGACAGACATCACACGCGGACGTTCAATTTATCCCAGCATCGGAGTCACCTAGTGCAG | 3310 fluorescence intensity (a.u.)
12 | CCGCGCGCGCCACGCGGCAGCGGAGCAGGTGTAGTTCTTGCGGAGTCACCTAGTGCAG | 5890 fluorescence intensity (a.u.)
13 | GGAAGGTGAGGGGTGATGGTAGCACGTGCAAGACGGTAGTCGGAGTCACCTAGTGCAG | 3720 fluorescence intensity (a.u.)
14 | TTCTGCCGTCGCGCGGATGGCGTCACGTCGGCGGCGAAGACGGAGTCACCTAGTGCAG | 3670 fluorescence intensity (a.u.)
15 | ACCCCTTGATGGCCCATAAAATATGGGCTCCACGTTGCATCGGAGTCACCTAGTGCAG | 7420 fluorescence intensity (a.u.)
16 | GCACTAGCAACCAAATTGGATGCCGCATGGCGCCACGTTACGGAGTCACCTAGTGCAG | 4880 fluorescence intensity (a.u.)
17 | GTCACTGTGGCATTGCCACGTCAGCGAATCGAGTGGGTTACGGAGTCACCTAGTGCAG | 15300 fluorescence intensity (a.u.)
18 | TACGTGAAACTGACGTAATATTGAGCTGGCAGAAGTAGCACGGAGTCACCTAGTGCAG | 6360 fluorescence intensity (a.u.)
19 | TTACCTAAATAGCCATATTTGCAATGTCACCAATTCACCCCGGAGTCACCTAGTGCAG | 4840 fluorescence intensity (a.u.)
20 | TCGTCGCGTTGGATTTGACGAGCTCGTCACCACCGGCTGCCGGAGTCACCTAGTGCAG | 3270 fluorescence intensity (a.u.)
21 | ATATCAACCATGTCGTTCGTCCATCTTGTTCTGACCTGTGCGGAGTCACCTAGTGCAG | 3780 fluorescence intensity (a.u.)

Quoted at random: 4 entries already listed, in no set order.
Row | Sequence | binding signal
2 | ATAAGATTTGACACCTGATACTGATACTGTCCAGTTTATGCGGAGTCACCTAGTGCAG | 3330 fluorescence intensity (a.u.)
18 | TACGTGAAACTGACGTAATATTGAGCTGGCAGAAGTAGCACGGAGTCACCTAGTGCAG | 6360 fluorescence intensity (a.u.)
1 | TCTACTGCAATTAGTTGATTCAGCTAGTAGCAAACATAATCGGAGTCACCTAGTGCAG | 54800 fluorescence intensity (a.u.)
5 | CCATGGATCCACCTGTCCACGCAGCTGAGCTTAACCACCGCGGAGTCACCTAGTGCAG | 3490 fluorescence intensity (a.u.)

More records follow.

Row | Sequence | binding signal
22 | ACCACCACCTCGGCATCTCCTCGTCCTCGAGCCCAATACTCGGAGTCACCTAGTGCAG | 3660 fluorescence intensity (a.u.)
23 | ATTATATCATGCCATTTTAGAAGAATCCTCCGGTCCACGTCGGAGTCACCTAGTGCAG | 5570 fluorescence intensity (a.u.)
24 | GGTCGGTCATGCTTAGCGGCGGCCGATCTGGTGCTAGTCTCGGAGTCACCTAGTGCAG | 3410 fluorescence intensity (a.u.)
25 | AAAATGACAGCTGTACCGTGGGTGGTGTCACACCTTTTGCCGGAGTCACCTAGTGCAG | 5750 fluorescence intensity (a.u.)
26 | TTCCTGTGCTTTTATATAGTCGGCCACGCGTCCCTTGAGCCGGAGTCACCTAGTGCAG | 3860 fluorescence intensity (a.u.)
27 | TGGTTGTGTCCTGGTTTACCTAATTGAGTCAATCAATATGCGGAGTCACCTAGTGCAG | 3340 fluorescence intensity (a.u.)
28 | GAGATTCGGCCCATGACGTCGTGGTCTGGAGCGACACGTACGGAGTCACCTAGTGCAG | 3200 fluorescence intensity (a.u.)
29 | TTTTCTGCACATTTCCACCACGTCACAAAGAGCTAAGAGTCGGAGTCACCTAGTGCAG | 7550 fluorescence intensity (a.u.)
30 | GCTCACGCTTCGCCGTCCGCGTCGCGTCGCGTTGCGTCGGCGGAGTCACCTAGTGCAG | 3420 fluorescence intensity (a.u.)
31 | GAATTGAGCATGTCGGGAGAATCTGAACAATGGTGGTTGTCGGAGTCACCTAGTGCAG | 3870 fluorescence intensity (a.u.)
32 | TAGTCAAAGGAGCCACGTAGATGTCACATTAGCTAAAACTCGGAGTCACCTAGTGCAG | 5400 fluorescence intensity (a.u.)
33 | GGTTTTGGAGAGCGGTTTCACTGACGTGGCAGTGTTGACCCGGAGTCACCTAGTGCAG | 22900 fluorescence intensity (a.u.)
34 | CGCCTCGTCCTCTCCTTATCTCCTGTCTTTCGTGGCATCTCGGAGTCACCTAGTGCAG | 4620 fluorescence intensity (a.u.)
35 | CGGATGCCGTCCCTGCCGCCGGCCCACGTCGAGCTCATCCCGGAGTCACCTAGTGCAG | 3800 fluorescence intensity (a.u.)
36 | CCGCCGCCACGCCGCTCCATGTCACTCCTACTCCCGCCACCGGAGTCACCTAGTGCAG | 7630 fluorescence intensity (a.u.)
37 | GCCGACGCGCGCCGAGCTCATGGCTGCTACGTCCCCGCACCGGAGTCACCTAGTGCAG | 3610 fluorescence intensity (a.u.)
38 | TAGGATTTACAGATGCATGACACGCTCCACCATGGACAAACGGAGTCACCTAGTGCAG | 3430 fluorescence intensity (a.u.)
39 | CACCCTTGACCATTAGTGATGACGATGGCTCCTGGCGGCCCGGAGTCACCTAGTGCAG | 6210 fluorescence intensity (a.u.)
40 | TATTTTCTGGATTCAATTGCCACGTAAGCGCCACATCATTCGGAGTCACCTAGTGCAG | 16000 fluorescence intensity (a.u.)
41 | TGGGCAACGAATGCGAACCTACTTCTCCTAGTATACTGCTCGGAGTCACCTAGTGCAG | 3720 fluorescence intensity (a.u.)
42 | ACTTTGTCAAGTTCAATAATATACCATCGTGTTTTCTTTACGGAGTCACCTAGTGCAG | 3260 fluorescence intensity (a.u.)
